Reference: PubChem BioAssay AID206 (DTP/NCI, 2004)
The list is a part of this screen's results and no random one: it gathers tests that were run many times, whatever their T/C, doses with no T/C, and many T/C values between a quarter and a half above the control. Further doses and runs are listed elsewhere. T/C: endpoint of the treated group in % of that of the vehicle group. Schedules are NCI's codes, taken here to give the interval after Q, in days (D) or hours (H), and the number of doses after X. Some T/C values are followed by the survivors on the day toxicity was checked, most often the fifth; without a count, all were alive then. Some doses were run more than once; the results are listed from low to high. Some entries give survivors of the animals treated and no T/C: the source files T/C as zero there, which appears to mark a toxic dose or a test without result, not a measured value. Survivors were counted at the toxicity check, usually on the fifth day, unless a day is given; later deaths do not show.

Test system: nude mice, HT29 intrarenal xenograft, tumor weight T/C
Assay: NCI In Vivo Anticancer Drug Screen. Data for tumor model HT29;CX-1 Human Adenocarcinoma (MER+) (intrarenal inoculation) in NU/NU Swiss (nude) mice
Conditions: T/C endpoint: mean tumor weight change, higher T/C = larger tumour
Procedure, shortened: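 T/C = treated-group value ÷ vehicle-group value, using tumor size or survival.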

[1] = dose: 37.5 mg/kg/injection, schedule: Q04DX004 (sc), vehicle: saline, evaluated on day 15
[2] = dose: 400.0 mg/kg/injection, schedule: Q01DX010 (sc), vehicle: saline with Tween-80
[3] = dose: 800.0 mg/kg/injection, schedule: Q01DX010 (sc), vehicle: saline with Tween-80
[4] = dose: 300.0 mg/kg/injection, schedule: Q04DX004 (sc), vehicle: saline with Tween-80
[5] = dose: 600.0 mg/kg/injection, schedule: Q04DX004 (sc), vehicle: saline with Tween-80
[6] = dose: 1.0 mg/kg/injection, schedule: Q04DX004 (sc), vehicle: saline, evaluated on day 15
[7] = dose: 600.0 mg/kg/injection, schedule: Q04DX004 (sc), vehicle: Klucel (hydroxypropylcellulose) (HPC)

## CC1=C(C)C(=O)O[C@@H]([C@](C)(O)[C@]2(O)CC[C@@]3(O)[C@@H]4C[C@H]5O[C@]56[C@@H](O)C=CC(=O)[C@]6(C)[C@H]4CC[C@]23C)C1
dose: 64.0 mg/kg/injection, schedule: Q01DX010 (sc), vehicle: saline
  survivor count: 0 of 3 on day 11
dose: 128.0 mg/kg/injection, schedule: Q01DX010 (sc), vehicle: saline
  survivor count: 1 of 6 on day 11

## [Cl][Mn][Cl]
[1]
  T/C: 149 % of control

## CC[C@]1(O)C[C@H]2CN(CCc3c([nH]c4ccccc34)[C@@](C(=O)OC)(c3cc4c(cc3OC)N(C=O)[C@H]3[C@@](O)(C(=O)OC)[C@H](OC(C)=O)[C@]5(CC)C=CCN6CC[C@]43[C@@H]65)C2)C1
dose: 0.5 mg/kg/injection, schedule: Q01DX010 (sc), vehicle: saline
  survivor count: 1 of 3 on day 11
dose: 1.0 mg/kg/injection, schedule: Q01DX010 (sc), vehicle: saline
  survivor count: 1 of 3 on day 11

## O=c1[nH]c(=O)n(C2CC(O)C(CO)O2)cc1I (stereo not given)
[2]
  survivor count: 0 of 3 on day 11
[3]
  survivor count: 0 of 3 on day 11
dose: 1600.0 mg/kg/injection, schedule: Q01DX010 (sc), vehicle: saline with Tween-80
  survivor count: 0 of 3 on day 11

## CN=S(=O)(OCCCCCOS(=O)(=NC)c1ccc(C)cc1)c1ccc(C)cc1 (stereo not given)
[4]
  survivor count: 3 of 6 on day 15
[5]
  survivor count: 1 of 6 on day 15
dose: 1200.0 mg/kg/injection, schedule: Q04DX004 (sc), vehicle: saline with Tween-80
  survivor count: 0 of 6 on day 15

## CC(=O)c1c(O)c(C)c(O)c2c1OC1=CC(=O)C(C(C)=O)C(=O)C12C (stereo not given)
dose: 300.0 mg/kg/injection, schedule: Q04DX004 (sc), vehicle: sodium bicarbonate, evaluated on day 15
  T/C: 142 % of control
dose: 600.0 mg/kg/injection, schedule: Q04DX004 (sc), vehicle: sodium bicarbonate
  survivor count: 1 of 6 on day 15
dose: 800.0 mg/kg/injection, schedule: Q01DX010 (sc), vehicle: sodium bicarbonate
  survivor count: 1 of 3 on day 11
dose: 1200.0 mg/kg/injection, schedule: Q04DX004 (sc), vehicle: sodium bicarbonate
  survivor count: 1 of 6 on day 15 and 3 of 6 on day 15
dose: 2400.0 mg/kg/injection, schedule: Q04DX004 (sc), vehicle: sodium bicarbonate
  survivor count: 0 of 6 on day 15 and 1 of 6 on day 15

## C/C=C(\C)c1cc(=O)c2c(C)cc3c(c2o1)C(=O)c1c(O)c(C2CC(C)(N(C)C)C(O)C(C)O2)cc(C2CC(N(C)C)C(O)C(C)O2)c1C3=O (stereo not given)
[6]
  T/C: 136 % of control
dose: 32.0 mg/kg/injection, schedule: Q04DX004 (sc), vehicle: suspension in saline
  survivor count: 1 of 6 on day 15

## CCCC(=O)Oc1ccc(/C=N/NC(N)=S)nc1
[2]
  survivor count: 1 of 3 on day 11
[3]
  survivor count: 0 of 3 on day 11

## CCOC(=O)C(N)C[S][Sn]([CH3])([CH3])[Cl] (stereo not given)
[1]
  T/C: 125 % of control
dose: 150.0 mg/kg/injection, schedule: Q04DX004 (sc), vehicle: saline
  survivor count: 1 of 6 on day 15

## CCN(CC)c1ccc2cc(-c3nc4ccccc4n3C)c(=O)oc2c1
[7]
  survivor count: 1 of 6 on day 15

## COC1CC(C)C(OC)c2cc(O)cc(c2O)NC(=O)/C(C)=C/C=C\C(C)C(OC(N)=O)/C(C)=C\C(C)C1OC (stereo not given)
dose: 100.0 mg/kg/injection, schedule: Q04DX004 (sc), vehicle: saline + alcohol
  survivor count: 1 of 6 on day 15
dose: 200.0 mg/kg/injection, schedule: Q04DX004 (sc), vehicle: saline + alcohol
  survivor count: 1 of 6 on day 15
dose: 400.0 mg/kg/injection, schedule: Q04DX004 (sc), vehicle: saline + alcohol
  survivor count: 0 of 6 on day 15

## c1ccc2c(NCCCCCCNc3c4ccccc4nc4ccccc34)c3ccccc3nc2c1
dose: 5.0 mg/kg/injection, schedule: Q01DX010 (sc), vehicle: Klucel (hydroxypropylcellulose) (HPC), evaluated on day 11
  T/C: 49, 62, 64, 74 % of control
dose: 10.0 mg/kg/injection, schedule: Q01DX010 (sc), vehicle: Klucel (hydroxypropylcellulose) (HPC), evaluated on day 11
  T/C: 28, 51 [2 of 2 alive on day 11], 58, 69 [2 of 2 alive on day 11], 84, 144 % of control
dose: 20.0 mg/kg/injection, schedule: Q01DX010 (sc), vehicle: Klucel (hydroxypropylcellulose) (HPC), evaluated on day 11
  T/C: 3 [2 of 3 alive on day 11], 54, 74 % of control
dose: 20.0 mg/kg/injection, schedule: Q01DX010 (sc), vehicle: Klucel (hydroxypropylcellulose) (HPC)
  survivor count: 1 of 3 on day 11
dose: 40.0 mg/kg/injection, schedule: Q01DX010 (sc), vehicle: Klucel (hydroxypropylcellulose) (HPC), evaluated on day 11
  T/C: 10 % of control [2 of 2 alive on day 11]
dose: 40.0 mg/kg/injection, schedule: Q01DX010 (sc), vehicle: Klucel (hydroxypropylcellulose) (HPC)
  survivor count: 0 of 3 on day 11
dose: 80.0 mg/kg/injection, schedule: Q01DX010 (sc), vehicle: Klucel (hydroxypropylcellulose) (HPC)
  survivor count: 0 of 3 on day 11

## C[C@]12C=CC(=O)C=C1CC[C@@H]1[C@@H]2C(=O)C[C@@]2(C)[C@H]1CC[C@]2(O)C(=O)CO
[7]
  survivor count: 1 of 6 on day 15 and 1 of 5 on day 15
dose: 1200.0 mg/kg/injection, schedule: Q04DX004 (sc), vehicle: Klucel (hydroxypropylcellulose) (HPC)
  survivor count: 0 of 6 on day 15
dose: 2400.0 mg/kg/injection, schedule: Q04DX004 (sc), vehicle: Klucel (hydroxypropylcellulose) (HPC)
  survivor count: 0 of 6 on day 15 and 1 of 6 on day 15

## C=C1C(=O)C23[C@H](O)C1CC[C@H]2[C@]12COC3(O)[C@@H](O)[C@@H]1C(C)(C)CC[C@@H]2O
dose: 12.5 mg/kg/injection, schedule: Q04DX004 (sc), vehicle: Klucel (hydroxypropylcellulose) (HPC), evaluated on day 15
  T/C: 128 % of control
dose: 50.0 mg/kg/injection, schedule: Q04DX004 (sc), vehicle: Klucel (hydroxypropylcellulose) (HPC)
  survivor count: 0 of 6 on day 15
dose: 100.0 mg/kg/injection, schedule: Q04DX004 (sc), vehicle: Klucel (hydroxypropylcellulose) (HPC)
  survivor count: 0 of 6 on day 15

## CSc1cc(C)[o+]c(C)c1
dose: 400.0 mg/kg/injection, schedule: Q04DX004 (sc), vehicle: Klucel (hydroxypropylcellulose) (HPC)
  survivor count: 0 of 6 on day 15

## CCC(C)Nc1ccc(N)cc1 (stereo not given)
dose: 18.0 mg/kg/injection, schedule: Q04DX004 (sc), vehicle: Klucel (hydroxypropylcellulose) (HPC), evaluated on day 15
  T/C: 125 % of control

## CCCCCCCCCCCCSC1=C(Cl)C(=O)C(OC)=C(OC)C1=O
[5]
  survivor count: 3 of 6 on day 15

## S=P(N1CC1)(N1CC1)N1CC1
dose: 4.0 mg/kg/injection, schedule: Q01DX010 (sc), vehicle: saline
  survivor count: 0 of 3 on day 20
dose: 8.0 mg/kg/injection, schedule: Q01DX010 (sc), vehicle: saline
  survivor count: 0 of 3 on day 20

## CC(=O)NC(CCc1ccc(Cl)c(Cl)c1)c1cccc(O)c(=O)c1 (stereo not given)
dose: 400.0 mg/kg/injection, schedule: Q04DX004 (sc), vehicle: Klucel (hydroxypropylcellulose) (HPC), evaluated on day 15
  T/C: 129 % of control

## COC1=CC(=O)C(OC)=C(OC)C1=O
[4]
  survivor count: 2 of 6 on day 15

## C/C=C1\C[C@@H]2C(OC)Nc3cc(O)c(OC)cc3C(=O)N2C1 (stereo not given in full)
[6]
  T/C: 128 % of control

## Nc1ncn(C2OC(CO)C(O)C2O)c(=O)n1 (stereo not given)
dose: 1.5 mg/kg/injection, schedule: Q01DX010 (sc), vehicle: saline
  survivor count: 0 of 3 on day 11
dose: 20.0 mg/kg/injection, schedule: Q04DX004 (sc), vehicle: saline
  survivor count: 1 of 6 on day 15
dose: 200.0 mg/kg/injection, schedule: Q04DX004 (sc), vehicle: suspension in saline
  survivor count: 3 of 5 on day 15
dose: 2400.0 mg/kg/injection, schedule: Q04DX004 (sc), vehicle: suspension in saline
  survivor count: 0 of 6 on day 15

## C(CC1CO1)C1CO1 (stereo not given)
dose: 200.0 mg/kg/injection, schedule: Q01DX010 (sc), vehicle: saline
  survivor count: 0 of 3 on day 11
dose: 400.0 mg/kg/injection, schedule: Q01DX010 (sc), vehicle: saline
  survivor count: 0 of 3 on day 11

## Nc1ccc(C(OC(=O)c2cc3ccccc3c(Cc3c(O)c(C(=O)OC(c4ccc(N)cc4)(c4ccc(N)cc4)c4ccc(N)cc4)cc4ccccc34)c2O)(c2ccc(N)cc2)c2ccc(N)cc2)cc1
dose: 18.0 mg/kg/injection, schedule: Q04DX004 (sc), vehicle: saline with Tween-80, evaluated on day 15
  T/C: 135 % of control
[5]
  survivor count: 1 of 6 on day 15
